No constants are given. Whether binding was seen depends on the method and setting. Binding seen in cells or lysates may run through a third protein. Some entries that bind do so weakly or less than the wild type.
Target: Aurora B kinase (endogenous, 293T) (human (endogenous in 293T)) (UniProt Q96GD4)
Test: co-IP; 293T cell extracts expressing HA-PLK1 WT or HA-PLK1 AA; IP with anti-Aurora B kinase antibody

Substance | binding
HA-PLK1 AA (transfected in 293T cells) (from UniProt P53350 1-603) (enzyme) | binds
HA-PLK1 WT (transfected in 293T cells) (from UniProt P53350 1-603) (enzyme) | binds

From article PMC5788582
